Laboratory results: the supplement of paper PMC8612539
Values after ≈ are worked out from the molar mass of the structure shown. The source gives many values for each of these; only a part stands here.

System: Pasteurella multocida
Assay: minimum inhibitory concentration (MIC)
Protocol: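 Broth microdilution MIC (Sensititre BOPO7F bovine plate, CLSI methods) of 19 antimicrobials against field isolates of P. multocida, M. haemolytica, H. somni (deep nasopharyngeal swabs) and E. coli, Enterococcus spp. (rectal swabs) from weaned dairy heifers. Incubation 16-24 h at 35 C. MIC is the lowest concentration preventing visible growth. Values with <= or > lie at the tested range limits. Trimethoprim-sulfamethoxazole is given as the trimethoprim component of a 1:19 mixture.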

CC[C@H]1OC(=O)C[C@@H](O)[C@H](C)[C@@H](O[C@@H]2O[C@H](C)[C@@H](O)[C@H](N(C)C)[C@H]2O)[C@@H](CCN2CCCCC2)C[C@@H](C)C(=O)/C=C/C(C)=C/[C@@H]1CN1CCCCC1 [Tildipirosin]
Conditions	minimum inhibitory concentration [µg/mL]
isolate (source animal id): 30	> 16
isolate (source animal id): 34	> 16
isolate (source animal id): 36	> 16
isolate (source animal id): 37	> 16
isolate (source animal id): 46	≤ 1
isolate (source animal id): 48	> 16
isolate (source animal id): 49	> 16
isolate (source animal id): 54	> 16
isolate (source animal id): 55	> 16
isolate (source animal id): 58	≤ 1
isolate (source animal id): 60	> 16
isolate (source animal id): 61	> 16
isolate (source animal id): 63	> 16
isolate (source animal id): 64	≤ 1
isolate (source animal id): 65	> 16
isolate (source animal id): 66	> 16
isolate (source animal id): 67	> 16
isolate (source animal id): 69	> 16
isolate (source animal id): 73	> 16
isolate (source animal id): 75	> 16
isolate (source animal id): 76	> 16
isolate (source animal id): 77	> 16
isolate (source animal id): 78	> 16
isolate (source animal id): 80	> 16
isolate (source animal id): 82	> 16
isolate (source animal id): 83	> 16
isolate (source animal id): 88	> 16
isolate (source animal id): 92	> 16
isolate (source animal id): 94	> 16
isolate (source animal id): 318	> 16
isolate (source animal id): 319	> 16
isolate (source animal id): 320	> 16
isolate (source animal id): 321	> 16
isolate (source animal id): 322	> 16
isolate (source animal id): 324	> 16
isolate (source animal id): 325	> 16
isolate (source animal id): 328	> 16
isolate (source animal id): 330	> 16
isolate (source animal id): 331	≤ 1
isolate (source animal id): 333	> 16
isolate (source animal id): 336	> 16
isolate (source animal id): 337	> 16
isolate (source animal id): 339	> 16
isolate (source animal id): 340	> 16
isolate (source animal id): 341	> 16

CC[C@H]1OC(=O)C[C@@H](O)[C@H](C)[C@@H](O[C@@H]2O[C@H](C)[C@@H](O)[C@H](N(C)C)[C@H]2O)[C@@H](CCN2C[C@H](C)C[C@H](C)C2)C[C@@H](C)C(=O)/C=C/C(C)=C/[C@@H]1CO[C@@H]1O[C@H](C)[C@@H](O)[C@@H](OC)[C@H]1OC [Tilmicosin]
Conditions	minimum inhibitory concentration [µg/mL]
isolate (source animal id): 30	> 16
isolate (source animal id): 34	> 16
isolate (source animal id): 36	> 16
isolate (source animal id): 37	> 16
isolate (source animal id): 46	8 (≈ 9.2 µM)
isolate (source animal id): 48	> 16
isolate (source animal id): 49	> 16
isolate (source animal id): 54	> 16
isolate (source animal id): 55	> 16
isolate (source animal id): 58	4 (≈ 4.6 µM)
isolate (source animal id): 60	> 16
isolate (source animal id): 61	> 16
isolate (source animal id): 63	> 16
isolate (source animal id): 64	4 (≈ 4.6 µM)
isolate (source animal id): 65	> 16
isolate (source animal id): 66	> 16
isolate (source animal id): 67	> 16
isolate (source animal id): 69	> 16
isolate (source animal id): 73	> 16
isolate (source animal id): 75	> 16
isolate (source animal id): 76	> 16
isolate (source animal id): 77	> 16
isolate (source animal id): 78	> 16
isolate (source animal id): 80	> 16
isolate (source animal id): 82	> 16
isolate (source animal id): 83	> 16
isolate (source animal id): 88	> 16
isolate (source animal id): 92	> 16
isolate (source animal id): 94	> 16
isolate (source animal id): 318	> 16
isolate (source animal id): 319	> 16
isolate (source animal id): 320	> 16
isolate (source animal id): 321	> 16
isolate (source animal id): 322	> 16
isolate (source animal id): 324	> 16
isolate (source animal id): 325	> 16
isolate (source animal id): 328	> 16
isolate (source animal id): 330	> 16
isolate (source animal id): 331	8 (≈ 9.2 µM)
isolate (source animal id): 333	> 16
isolate (source animal id): 336	> 16
isolate (source animal id): 337	> 16
isolate (source animal id): 339	> 16
isolate (source animal id): 340	> 16
isolate (source animal id): 341	> 16

CCCNC[C@]1(O)[C@H](C)O[C@@H](O[C@H]2[C@H](C)[C@@H](O[C@@H]3O[C@H](C)C[C@H](N(C)C)[C@H]3O)[C@](C)(O)C[C@@H](C)CN[C@H](C)[C@@H](O)[C@](C)(O)[C@@H](CC)OC(=O)[C@@H]2C)C[C@@]1(C)OC [Tulathromycin]
Conditions	minimum inhibitory concentration [µg/mL]
isolate (source animal id): 30	32 (≈ 39.7 µM)
isolate (source animal id): 34	16 (≈ 19.8 µM)
isolate (source animal id): 36	16 (≈ 19.8 µM)
isolate (source animal id): 37	16 (≈ 19.8 µM)
isolate (source animal id): 46	≤ 8
isolate (source animal id): 48	16 (≈ 19.8 µM)
isolate (source animal id): 49	≤ 8
isolate (source animal id): 54	≤ 8
isolate (source animal id): 55	16 (≈ 19.8 µM)
isolate (source animal id): 58	≤ 8
isolate (source animal id): 60	≤ 8
isolate (source animal id): 61	32 (≈ 39.7 µM)
isolate (source animal id): 63	16 (≈ 19.8 µM)
isolate (source animal id): 64	≤ 8
isolate (source animal id): 65	32 (≈ 39.7 µM)
isolate (source animal id): 66	> 64
isolate (source animal id): 67	≤ 8
isolate (source animal id): 69	16 (≈ 19.8 µM)
isolate (source animal id): 73	≤ 8
isolate (source animal id): 75	≤ 8
isolate (source animal id): 76	16 (≈ 19.8 µM)
isolate (source animal id): 77	> 64
isolate (source animal id): 78	16 (≈ 19.8 µM)
isolate (source animal id): 80	16 (≈ 19.8 µM)
isolate (source animal id): 82	16 (≈ 19.8 µM)
isolate (source animal id): 83	16 (≈ 19.8 µM)
isolate (source animal id): 88	64 (≈ 79.4 µM)
isolate (source animal id): 92	> 64
isolate (source animal id): 94	≤ 8
isolate (source animal id): 318	≤ 8
isolate (source animal id): 319	≤ 8
isolate (source animal id): 320	16 (≈ 19.8 µM)
isolate (source animal id): 321	16 (≈ 19.8 µM)
isolate (source animal id): 322	≤ 8
isolate (source animal id): 324	> 64
isolate (source animal id): 325	≤ 8
isolate (source animal id): 328	≤ 8
isolate (source animal id): 330	16 (≈ 19.8 µM)
isolate (source animal id): 331	≤ 8
isolate (source animal id): 333	≤ 8
isolate (source animal id): 336	16 (≈ 19.8 µM)
isolate (source animal id): 337	≤ 8
isolate (source animal id): 339	16 (≈ 19.8 µM)
isolate (source animal id): 340	≤ 8
isolate (source animal id): 341	≤ 8

CC[C@H]1OC(=O)C[C@@H](O)[C@H](C)[C@@H](O[C@@H]2O[C@H](C)[C@@H](O[C@H]3C[C@@](C)(O)[C@@H](O)[C@H](C)O3)[C@H](N(C)C)[C@H]2O)[C@@H](CC=O)C[C@@H](C)C(=O)/C=C/C(C)=C/[C@@H]1CO[C@@H]1O[C@H](C)[C@@H](O)[C@@H](OC)[C@H]1OC [Tylosin]
Conditions	minimum inhibitory concentration [µg/mL]
isolate (source animal id): 30	> 32
isolate (source animal id): 34	> 32
isolate (source animal id): 36	> 32
isolate (source animal id): 37	> 32
isolate (source animal id): 46	32 (≈ 34.9 µM)
isolate (source animal id): 48	> 32
isolate (source animal id): 49	> 32
isolate (source animal id): 54	> 32
isolate (source animal id): 55	> 32
isolate (source animal id): 58	32 (≈ 34.9 µM)
isolate (source animal id): 60	> 32
isolate (source animal id): 61	> 32
isolate (source animal id): 63	> 32
isolate (source animal id): 64	32 (≈ 34.9 µM)
isolate (source animal id): 65	> 32
isolate (source animal id): 66	> 32
isolate (source animal id): 67	> 32
isolate (source animal id): 69	> 32
isolate (source animal id): 73	> 32
isolate (source animal id): 75	> 32
isolate (source animal id): 76	> 32
isolate (source animal id): 77	> 32
isolate (source animal id): 78	> 32
isolate (source animal id): 80	> 32
isolate (source animal id): 82	> 32
isolate (source animal id): 83	> 32
isolate (source animal id): 88	> 32
isolate (source animal id): 92	> 32
isolate (source animal id): 94	> 32
isolate (source animal id): 318	> 32
isolate (source animal id): 319	> 32
isolate (source animal id): 320	> 32
isolate (source animal id): 321	> 32
isolate (source animal id): 322	> 32
isolate (source animal id): 324	> 32
isolate (source animal id): 325	> 32
isolate (source animal id): 328	> 32
isolate (source animal id): 330	> 32
isolate (source animal id): 331	> 32
isolate (source animal id): 333	> 32
isolate (source animal id): 336	> 32
isolate (source animal id): 337	> 32
isolate (source animal id): 339	> 32
isolate (source animal id): 340	> 32
isolate (source animal id): 341	> 32

COc1cc(NS(=O)(=O)c2ccc(N)cc2)nc(OC)n1 [sulfadimethoxine]
Conditions	minimum inhibitory concentration [µg/mL]
isolate (source animal id): 30	> 256
isolate (source animal id): 34	> 256
isolate (source animal id): 36	> 256
isolate (source animal id): 37	> 256
isolate (source animal id): 46	> 256
isolate (source animal id): 48	> 256
isolate (source animal id): 49	> 256
isolate (source animal id): 54	> 256
isolate (source animal id): 55	> 256
isolate (source animal id): 58	> 256
isolate (source animal id): 60	> 256
isolate (source animal id): 61	> 256
isolate (source animal id): 63	> 256
isolate (source animal id): 64	> 256
isolate (source animal id): 65	> 256
isolate (source animal id): 66	> 256
isolate (source animal id): 67	> 256
isolate (source animal id): 69	> 256
isolate (source animal id): 73	> 256
isolate (source animal id): 75	> 256
isolate (source animal id): 76	> 256
isolate (source animal id): 77	> 256
isolate (source animal id): 78	> 256
isolate (source animal id): 80	> 256
isolate (source animal id): 82	> 256
isolate (source animal id): 83	> 256
isolate (source animal id): 88	> 256
isolate (source animal id): 92	> 256
isolate (source animal id): 94	> 256
isolate (source animal id): 318	> 256
isolate (source animal id): 319	> 256
isolate (source animal id): 320	> 256
isolate (source animal id): 321	> 256
isolate (source animal id): 322	> 256
isolate (source animal id): 324	> 256
isolate (source animal id): 325	> 256
isolate (source animal id): 328	> 256
isolate (source animal id): 330	> 256
isolate (source animal id): 331	> 256
isolate (source animal id): 333	> 256
isolate (source animal id): 336	> 256
isolate (source animal id): 337	> 256
isolate (source animal id): 339	> 256
isolate (source animal id): 340	> 256
isolate (source animal id): 341	> 256
